In assay [1] the target is β2-adrenergic receptor (UniProt P07550). Nature of the assay: pull-down; purified Flag-β2AR in rHDL on M1 anti-Flag resin, occupied by 50 µM BI-167107 or 50 µM carazolol; adult rat heart cytosol overnight at 4°C; eluate analysed by Western blot; only the target purified. Background: Immunoblotting shows a protein as a band on a membrane.
Assay [2] shares this target. Nature of the assay: condition: only β2AR occupied by the inverse agonist carazolol (50 µM); pull-down; as a2, the sample with β2AR occupied by 50 µM carazolol (inverse agonist) alone; Western blot; only the target purified.

Chains of the proteins cited; added tags and fusions are not shown.
UniProt Q09137: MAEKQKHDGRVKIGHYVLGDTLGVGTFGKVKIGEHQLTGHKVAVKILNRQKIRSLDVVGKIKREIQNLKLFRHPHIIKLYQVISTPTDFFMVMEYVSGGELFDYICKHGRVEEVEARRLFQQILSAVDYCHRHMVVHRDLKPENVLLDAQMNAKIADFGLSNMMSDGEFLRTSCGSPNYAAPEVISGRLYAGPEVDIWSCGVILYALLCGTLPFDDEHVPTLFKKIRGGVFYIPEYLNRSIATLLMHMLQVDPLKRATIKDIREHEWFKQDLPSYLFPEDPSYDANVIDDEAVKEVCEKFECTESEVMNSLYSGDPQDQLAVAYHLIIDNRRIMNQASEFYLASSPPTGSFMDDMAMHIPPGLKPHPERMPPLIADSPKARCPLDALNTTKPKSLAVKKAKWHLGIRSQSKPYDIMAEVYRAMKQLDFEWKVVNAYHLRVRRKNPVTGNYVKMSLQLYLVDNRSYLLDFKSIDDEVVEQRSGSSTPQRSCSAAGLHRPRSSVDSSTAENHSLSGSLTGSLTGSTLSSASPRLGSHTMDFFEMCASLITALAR
UniProt P62994: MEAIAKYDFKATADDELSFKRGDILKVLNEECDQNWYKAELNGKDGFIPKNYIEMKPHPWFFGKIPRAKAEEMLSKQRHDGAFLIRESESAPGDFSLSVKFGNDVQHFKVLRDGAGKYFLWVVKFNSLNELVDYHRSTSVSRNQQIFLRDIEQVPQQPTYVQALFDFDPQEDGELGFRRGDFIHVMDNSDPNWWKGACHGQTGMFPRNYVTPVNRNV
UniProt P63095: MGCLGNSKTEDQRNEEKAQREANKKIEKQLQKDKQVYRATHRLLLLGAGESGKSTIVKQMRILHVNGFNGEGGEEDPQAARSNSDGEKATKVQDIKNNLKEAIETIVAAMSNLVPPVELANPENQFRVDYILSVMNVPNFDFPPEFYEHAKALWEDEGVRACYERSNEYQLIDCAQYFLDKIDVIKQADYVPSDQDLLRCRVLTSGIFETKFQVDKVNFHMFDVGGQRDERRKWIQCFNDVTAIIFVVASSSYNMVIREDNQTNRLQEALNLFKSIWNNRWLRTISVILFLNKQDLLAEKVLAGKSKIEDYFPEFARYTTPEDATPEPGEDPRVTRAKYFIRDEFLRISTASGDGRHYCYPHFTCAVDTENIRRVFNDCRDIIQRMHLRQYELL
UniProt Q920G2: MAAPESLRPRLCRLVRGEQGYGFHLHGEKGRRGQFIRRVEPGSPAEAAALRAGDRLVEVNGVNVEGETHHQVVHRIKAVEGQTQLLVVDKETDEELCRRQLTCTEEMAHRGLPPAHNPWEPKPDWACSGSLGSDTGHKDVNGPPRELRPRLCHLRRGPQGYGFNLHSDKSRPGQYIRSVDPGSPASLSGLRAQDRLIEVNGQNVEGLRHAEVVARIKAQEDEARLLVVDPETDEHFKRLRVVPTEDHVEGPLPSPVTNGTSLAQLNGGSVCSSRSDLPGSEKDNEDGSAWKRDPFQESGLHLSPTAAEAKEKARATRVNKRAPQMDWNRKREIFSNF

No constants are given. Whether binding was seen depends on the method and setting. In cells and extracts the contact can be indirect. Some results given as binding are weak or reduced against the parent protein; the word gives no strength.

Data on four substances can be found in paper PMC3556083.

In the case of AMPKα2 (from UniProt Q09137 1-552), the binding entry with β2-adrenergic receptor [1] was “binds”.

For the substance Grb2 (from UniProt P62994 1-217), in the assay with β2-adrenergic receptor [1], the binding entry was “binds”.

Turning to Gsα (from UniProt P63095 1-394), the binding entry with β2-adrenergic receptor [2] is listed as “no binding”; in the assay with β2-adrenergic receptor [1] it was “binds”. Consider NHERF-2 (from UniProt Q920G2 1-337), for which the binding entry with β2-adrenergic receptor [1] was “binds”.
